# From PubChem BioAssay AID2685 (National Center for Advancing Translational Sciences (NCATS), 2010)
# About 2,100 (0.66%) of roughly 320,000 compounds were called active. The inconclusive results got no clear call from the source; some entries with a clear call stand among them for comparison. Calls follow the shape of the dose curve; as a rule, active = well fitted inhibition curve with a large enough effect in the signal ratio, with a control signal flat (not every such curve was filed as active); inconclusive = small, poorly fitted or top-dose-only effect, or effect the other way, or a change in a side signal; inactive = flat fitted curve, though single readings scatter; the % refers to the signal ratio. A potency beside an inconclusive call is a rough fit, not a confirmed value.
# Experiment: qHTS Assay for Lipid Storage Modulators in Drosophila S3 Cells
# Details: BODIPY lipid droplet fluorescence, 18-24 h, cells fed with added oleic acid; lipid storage change, negative = inhibition: at 46.1 µM (top of the series) unless noted
# In short: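 Drosophila S3 cells got compounds at several concentrations plus oleic acid (400 uM solution). Laser-scanning cytometry with 488 nm excitation read lipid droplets at 500-530 nm and cells at 575-640 nm. Percent activity was relative to 20 uM Triacsin C.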
# % is scaled to controls: 0 for no effect and ±100 for the full control effect; potency is read from the fitted curve at half-maximal effect.
Compound,"lipid storage change, negative = inhibition",Potency
O=C(Nc1ccc(F)cc1)c1cc(S(=O)(=O)Nc2ccc(F)cc2)cs1,inconclusive: 34.2%,–
Cc1cc(C)nc(N2CCCC(C(=O)NC3CC3)C2)n1 (centres undefined),inactive,–
Cn1c(=O)c2c(nc(NCCCO)n2Cc2cccc(Br)c2)n(C)c1=O,inactive,–
Cc1cc(-c2nnc(SCC(=O)NC3CCCC3)o2)no1,inconclusive: 25.1%,–
CSCCC(NS(=O)(=O)c1ccc(C)c(C(=O)O)c1)C(=O)O (centres undefined),inconclusive: 32.1%,–
CCN(C(=O)CSc1nccn1C)c1cccc2ccccc12,inconclusive: 23.1%,–
Cc1ccc(CSc2nnc(-c3ccco3)o2)cc1,–,"inconclusive: 29.1 µM [rising, single point]"
CCOc1ccc(NC(=S)N2CCn3c(nc4ccccc43)C2)cc1,inconclusive: -7.26%,–
O=C(Cc1ccccc1)NCCc1cn2ccsc2n1,inconclusive: 52.2% [activator],–
CC(C)OCCCNCC(O)c1ccccc1 (centres undefined),inconclusive: 16.4%,–
Cc1cc(=O)oc(C)c1C(=O)NCCC1=CCCCC1,–,"inconclusive: 29.1 µM [cytotoxic, single point]"
COc1ccccc1CC(=O)O/N=C(\N)c1cccc([N+](=O)[O-])c1,inconclusive: 119%,–
CCCCn1c(N)c(N(CC(C)C)C(=O)c2oc3c(Cl)cccc3c2C)c(=O)[nH]c1=O,inconclusive: 0.404%,–
COc1cccc(C(=O)NOCc2ccccc2)c1OC,–,"inconclusive: 13 µM [activator, partial curve, poor fit]"
COc1ccc(CCNc2c([N+](=O)[O-])c(=O)oc3ccccc23)cc1OC,inconclusive: -28%,–
COc1ccc(OC)c(C2=NNC(=NCc3ccc4c(c3)OCO4)SC2)c1,inconclusive: 13.4%,–
O=C1NC[C@H](Cc2ccccc2)N(CC2CCCCC2)C1=O,inconclusive: -0.715%,–
Cc1ccc(-c2nc(CN(C)Cc3ccc4nccnc4c3)c(C)o2)s1,inconclusive: -10.6%,–
O=C(NC(=S)N1CCN(c2ccccn2)CC1)c1ccccc1,inconclusive: 28.3%,–
COc1ccc(NC(=O)COC(=O)/C=C/c2ccc(OC)c(S(=O)(=O)N3CCOCC3)c2)cc1,inconclusive: 13.9%,–
O=C(c1ccccc1)c1c[nH]c(C(=O)C(Cl)(Cl)Cl)c1,inconclusive: -32.1% [cytotoxic] [at 0.369 µM],–
COc1ccc(Br)c(C(=O)NC(C)(C)CO)c1,inconclusive: -4.72%,–
CCOC(=O)c1[nH]c2ccc(OCC)cc2c1NC(=O)CN1CCN(c2ccccc2)CC1,inconclusive: 16.3%,–
CCC1(c2ccccc2)NC(=O)N(CC(=O)N(C)Cc2c(F)cccc2Cl)C1=O (centres undefined),inconclusive: 91.2%,–
O=C(Nc1cccc(Cl)c1N1CCCC1)c1ccc(Br)o1,–,"inconclusive: 0.116 µM [activator, full curve, poor fit]"
CC(=O)Nc1ccc(Nc2cc(N(C)C)c3nonc3c2[N+](=O)[O-])cc1,–,"inconclusive: 20.6 µM [activator, partial curve, poor fit]"
CC(=O)Nc1ccc(NC(=O)COC(=O)c2ccco2)cc1,inconclusive: -2.54%,–

Compound,"lipid storage change, negative = inhibition",Potency
O=C(NCCCN1CCCC1=O)C1CCN(S(=O)(=O)c2ccccc2)CC1,–,"inconclusive: 1.3 µM [falling, partial curve]"
COCCOC(=O)C1=C(C)NC(C)=C(C(=O)OCCOC)C1/C=C/c1ccccc1OC,inconclusive: -0.914%,–
CC(C)N1CN=C(Nc2nc3ccccc3o2)NC1,inconclusive: -19.6%,–
Cc1ccc(NC(=O)COC(=O)Cc2cccs2)c(Br)c1,inconclusive: 12.2%,–
Cc1ccc(C)c(NC(=O)c2nnn(Cc3ccccc3)c2N)c1,inconclusive: -43.3%,–
CCCN1CCc2c(sc(NC(=O)c3ccc(S(=O)(=O)N(C)c4ccccc4)cc3)c2C(N)=O)C1,–,active: 13 µM
COc1ccc(C(=O)c2nccc3ccccc23)cc1,inconclusive: 27.8%,–
CCc1cc(C(=O)OCC(=O)N2CCC(c3ccccc3)=N2)sc1C,inconclusive: -39.2%,–
O=C(CC(c1ccccc1)(c1ccccc1)c1ccccc1)N[C@@H](Cc1ccc(O)cc1)C(=O)O,–,"inconclusive: 25.9 µM [falling, single point]"
COc1nc(C)ccc1-c1noc(-c2cccnc2)n1,inconclusive: 32.7%,–
O=C1CC(c2ccccc2)=Nc2ccccc2N1Cc1ccccc1,inconclusive: 12.6%,–
Cc1ccccc1C(=O)Nc1nnc(S(=O)(=O)N2CCCCC2)s1,–,"inconclusive: 2.06 µM [activator, partial curve]"
O=C(CCN1C(=O)/C(=C\c2cccs2)SC1=S)Nc1ccccn1,inconclusive: 21.4%,–
CCC(C(=O)NCCCc1ccccc1)n1nc(C)c2c(C)n(-c3ccccc3)nc2c1=O (centres undefined),–,"inconclusive: 5.8 µM [activator, partial curve]"
Cc1cc(Br)ccc1NC(=O)C(C)c1ccc([N+](=O)[O-])cc1 (centres undefined),inactive,–
COc1ccc(C2/C(=C(/O)c3ccccc3)C(=O)C(=O)N2C)cc1OC (centres undefined),inconclusive: 9.58%,–
CN1CCN(C(=O)CSc2nc(-c3cccs3)ccc2C#N)CC1,inconclusive: 19.3%,–
CCOC(=O)c1ccc(NC(=O)CCS(=O)(=O)c2cccc3nonc23)cc1,inconclusive: 4.42%,–
[N-]=[N+]=NC[C@H](Cc1ccccc1)N1CCN(Cc2ccccc2)CCC1=O,–,"inconclusive: 1.46 µM [falling, partial curve, poor fit]"
N#CCc1nc(CSc2nc3ccccc3o2)cs1,inconclusive: 36.8%,–
Cc1ccc2nc(SCC(=O)Nc3ccc4sc(C)nc4c3)c(C#N)cc2c1,inconclusive: 40.9%,–
CCN1C(=O)[C@H]2[C@@H](c3ccc(-c4cccc(Cl)c4)c(OC)c3)N[C@@](CC(C)C)(C(=O)OC)[C@H]2C1=O,inconclusive: -41.7%,–
COc1ccc(NC(=O)CCN2C(=O)c3cccc([N+](=O)[O-])c3C2=O)cc1,–,"inconclusive: 7.31 µM [activator, partial curve]"
COc1ccc(-c2ccc(/C=C(\NC(=O)c3ccccc3)C(=O)N3CCOCC3)o2)cc1,inconclusive: -22.4%,–
COc1ccc([N+](=O)[O-])cc1NC(=O)CSc1ccc2ccccc2c1,inconclusive: 2.05%,–
CC(=O)/C(=C\N(C)C)Sc1ccc(C)cc1,inconclusive: -24.9%,–
Cc1ccc(C(=O)Cn2c(=N)n(CCN3CCOCC3)c3ccccc32)cc1,inconclusive: 10.7%,–

Compound,"lipid storage change, negative = inhibition",Potency
Cc1ccc(NS(=O)(=O)c2ccc3c(c2)oc(=O)n3C)c(C)c1,inconclusive: -8.65%,–
O=C(CCSCCC(=O)NCC1CCCO1)NCC1CCCO1 (centres undefined),inconclusive: 3.14%,–
Cc1cnc(C(=O)OCC(=O)Nc2ncc(Cl)cc2Cl)cn1,–,"inconclusive: 20.6 µM [activator, partial curve, poor fit]"
O=C(CSc1ccc(-c2cccnc2)nn1)Nc1ccccc1C(F)(F)F,–,"inconclusive: 0.58 µM [activator, full curve]"
O=C(NCCCN1CCCCC1)C1CCN(c2ncnc3c2nc2n3CCCCC2)CC1,inactive,–
CN(C)c1ccc(Nc2nc(N)c3ccccc3n2)cc1,–,"inconclusive: 29.1 µM [activator, single point]"
CC1CC(C)CN(S(=O)(=O)c2ccc3c(c2)CC(=O)N3)C1 (centres undefined),–,"inconclusive: 0.0731 µM [activator, full curve, poor fit]"
O=S(=O)(c1cccs1)N1CCN(Cc2cccc(F)c2)CC1,–,"inconclusive: 29.1 µM [activator, single point]"
COCC(C)NS(=O)(=O)c1ccc(OC)cc1 (centres undefined),inconclusive: -49.4%,–
O=S(=O)(c1ccccc1)N1CCC(n2nnc3cc(F)ccc32)CC1,inconclusive: 76.1%,–
CCCCCCSc1ccc(-c2nc3ccc(C)cn3c2NC2CCCCC2)cc1,–,active: 11.6 µM
CCC(=O)c1ccc(OCC(O)CN2CCN(c3cccc(C(F)(F)F)c3)CC2)cc1 (centres undefined),inconclusive: 53.4%,–
COc1ccc(C2(C(=O)N3CCCC3)CCOCC2)cc1OC,–,"inconclusive: 2.91 µM [falling, partial curve]"
CCOc1ccc(NC(=O)CN(C)C(=O)Cn2c(=O)oc3ccccc32)cc1OCC,inconclusive: 6.71%,–
CCCC1=NN2C(=N)/C(=C\c3cc(C)n(-c4cccc(C)c4)c3C)C(=O)N=C2S1,inconclusive: 18.9%,–
COc1cc(C2N(c3ccccc3)CCN2c2ccccc2)ccc1OC(C)=O,inconclusive: -5.07%,–
O=C(Cc1ncc(C(F)(F)F)cc1Cl)Nc1ccc(F)cc1,inconclusive: 46.9%,–
COc1ccccc1-c1nc(C(=O)NCC2CCCO2)cc2c1[nH]c1ccccc12 (centres undefined),–,"inconclusive: 20.6 µM [falling, partial curve, poor fit]"
COc1cc(NC(=O)c2cccs2)c(C(=O)OCC(=O)NC(C)c2ccccc2)cc1OC (centres undefined),–,"inconclusive: 0.366 µM [activator, full curve]"
Cc1cc(C)c(S(=O)(=O)c2ccc(F)cc2C)c(Cl)n1,inconclusive: 15.8%,–
O=C(Nc1cccc(Cl)c1N1CCOCC1)c1ccco1,inconclusive: -100%,–
COc1ccccc1C(=O)NN(C)C1=NS(=O)(=O)c2ccccc21,inconclusive: 12.2%,–
CCCCCc1ccc(-c2cn(CN3C(=O)c4ccccc4C3=O)nn2)cc1,inconclusive: 68.3%,–
OC(COCc1cccs1)CN1CCCCCC1 (centres undefined),–,"inconclusive: 0.517 µM [activator, single point]"
COCCCNC(=O)C1CCN(S(=O)(=O)c2c(C)noc2/C=C\c2ccc(OC)cc2)CC1,–,"inconclusive: 18.4 µM [rising, single point]"

# Shown bar-delimited: entries from further up.
Compound | lipid storage change, negative = inhibition | Potency
O=S(=O)(c1cccs1)N1CCN(Cc2cccc(F)c2)CC1 | – | inconclusive: 29.1 µM [activator, single point]
O=S(=O)(c1ccccc1)N1CCC(n2nnc3cc(F)ccc32)CC1 | inconclusive: 76.1% | –
COc1ccccc1C(=O)NN(C)C1=NS(=O)(=O)c2ccccc21 | inconclusive: 12.2% | –
